# Results: PubChem BioAssay AID540303 (National Center for Advancing Translational Sciences (NCATS), 2011)
# Screen size: about 330,000 compounds; about 1,000 (0.3%) were called active. The inconclusive results got no clear call from the source; some entries with a clear call stand among them for comparison. The call rests on the fitted dose curve; in most records, active means well fitted inhibition curve with a large enough effect; inconclusive means small, poorly fitted or top-dose-only effect; inactive means no such curve, though single readings can be large or run the other way; tested in mouse RAW 264.7 cells. Where the call is inconclusive, the potency comes from a doubtful curve fit.
# Assay: qHTS for Inhibitors of Cell Surface uPA Generation; further: nearly all actives have a fitted effect of over 55% in size
# Settings: cell surface uPA generation assay; series mostly up to 38.3 µM; activity change, negative = inhibition: at the top concentration
# Procedure, shortened: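 ATP-Lite luminescence in RAW 264.7 cells after 24 h of exposure to compound, tested up to 38.3 uM final in 1:5 steps. Raised ATP reflects inhibition of uPA-dependent LF delivery to the cytoplasm.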
# On the % scale 0 is the no-effect control and ±100 the full control effect; potency means the concentration at half of the fitted maximal effect.
SMILES,Potency,"activity change, negative = inhibition"
C#CCNC(=O)/C=C/c1ccc(C)cc1,"inconclusive: 11.2 µM [inhibitor, single point]",–
COC(=O)CNC(c1ccccc1)c1cc(Br)ccc1NS(=O)(=O)c1ccc(C)cc1 (stereo unspecified),"inconclusive: 28.2 µM [inhibitor, single point]",–
CC1CNCCN1S(=O)(=O)c1cccc2cnccc12 (stereo unspecified),"inconclusive: 8.91 µM [inhibitor, single point]",–
Cc1c(Br)ccc(NC(=O)c2ccccc2[N+](=O)[O-])c1C,"inconclusive: 5.01 µM [inhibitor, partial curve, poor fit]",–
C=CCNc1ncnc2c1[nH]c1ccc(C)cc12,"inconclusive: 10 µM [inhibitor, partial curve, poor fit]",–
CC(OC(=O)CCCOc1ccccc1)C(=O)Nc1ccc(Cl)cn1 (stereo unspecified),"inconclusive: 0.794 µM [inhibitor, full curve]",–
O=C(Nc1nccs1)c1ccc(Br)cc1,"inconclusive: 12.6 µM [inhibitor, partial curve]",–
CC(=O)N1CCN(C(=O)COC(=O)/C=C/c2ccc(C(F)(F)F)cc2)CC1,"inconclusive: 0.0251 µM [inhibitor, full curve, poor fit]",–
C/C(=N\NC(=S)NC(C)C)c1ccc(Cl)s1,–,inactive: 30.8%
CS(=O)(=O)N(CC(O)CON=C1c2ccccc2-c2ccccc21)c1ccc(F)cc1 (stereo unspecified),–,inactive: 3.13%
COCCCNc1oc(-c2ccccc2F)nc1C#N,"inconclusive: 11.2 µM [inhibitor, partial curve, poor fit]",–
Cc1ccc(-n2nc3c(c2NC(=O)c2c(F)cccc2Cl)CS(=O)(=O)C3)cc1C,"inconclusive: 0.562 µM [inhibitor, full curve, poor fit]",–
COCCn1c(/C=C/c2ccccc2)nc2ccccc21,"inconclusive: 2.51 µM [inhibitor, partial curve, poor fit]",–
O=C(Nc1nc(-c2ccc(-c3ccccc3)cc2)cs1)C1CCCO1 (stereo unspecified),–,inactive: 6.04%
CN(C)CCCNc1ncnc2c1c(-c1ccccc1)cn2-c1ccccc1,"inconclusive: 28.2 µM [inhibitor, single point]",–
COc1ccc(OC)c(NC(=O)C2C3C=CC(C3)C2C(=O)NCc2cccnc2)c1 (stereo unspecified),–,inactive: -1.49%
COc1ccc(N2Cc3ccc(OC)c(OC)c3C2=O)cc1,"inconclusive: 10 µM [inhibitor, partial curve, poor fit]",–
O=C(Nc1ccc2c(c1)CCC2)c1c(F)cccc1Cl,–,inactive: -1.93%
COc1ccc(C(=O)Nc2ccc(S(=O)(=O)N3CCN(C)CC3)cc2)cc1[N+](=O)[O-],"inconclusive: 11.2 µM [inhibitor, partial curve, poor fit]",–
COc1ccccc1NS(=O)(=O)c1cc(NC(=O)c2[nH]c(C)c(C(C)=O)c2C)ccc1N1CCOCC1,–,inactive: -9.58%
Cc1ccc2nc3c(c(Nc4cccc(O)c4)c2c1)CCC3,"inconclusive: 10 µM [inhibitor, single point]",–
CC(C)(C)c1ccc(-c2nnc(N)s2)cc1,"inconclusive: 5.01 µM [inhibitor, partial curve, poor fit]",–

# Compounds above that have a Cl atom, in the order listed:
SMILES,Potency,"activity change, negative = inhibition"
CC(OC(=O)CCCOc1ccccc1)C(=O)Nc1ccc(Cl)cn1 (stereo unspecified),"inconclusive: 0.794 µM [inhibitor, full curve]",–
C/C(=N\NC(=S)NC(C)C)c1ccc(Cl)s1,–,inactive: 30.8%
Cc1ccc(-n2nc3c(c2NC(=O)c2c(F)cccc2Cl)CS(=O)(=O)C3)cc1C,"inconclusive: 0.562 µM [inhibitor, full curve, poor fit]",–
O=C(Nc1ccc2c(c1)CCC2)c1c(F)cccc1Cl,–,inactive: -1.93%

# (further entries)

SMILES,Potency,"activity change, negative = inhibition"
O=C(CN1CCC(NC(=O)c2ccc(Br)cc2)CC1)NCc1cccs1,"inconclusive: 28.2 µM [inhibitor, single point]",–
Fc1ccccc1-c1cc2ncccc2cn1,"inconclusive: 12.6 µM [inhibitor, single point]",–
COC(=O)Cc1c(O)ccn(CCc2c[nH]c3ccccc23)c1=O,–,inactive: -5.28%
COc1ccc(S(=O)(=O)N[C@@H](C)C(=O)OCC(=O)Nc2cc3oc4ccccc4c3cc2OC)cc1,"inconclusive: 11.2 µM [inhibitor, partial curve, poor fit]",–
Cc1ccc(NC(=O)CCS(=O)(=O)c2cccc3nonc23)c(Cl)c1,–,inactive: 0.52%
CSc1nc2nc(C)c(CCC(=O)OCC(=O)Nc3ccc(F)cc3)c(C)n2n1,–,inactive: 2.66%
Cc1nnc(NC(=O)c2ccc(S(=O)(=O)C(F)F)cc2)s1,"inconclusive: 7.08 µM [inhibitor, partial curve, poor fit]",–
CC(=O)Nc1ccc(NC(=O)Cc2ccc(-c3ccccc3)cc2)cc1,–,inactive: -0.359%
O=C1C=CC(=O)c2c(O)c(N3CCN(CCOCCO)CC3)c(Br)c(O)c21,–,inactive: -10.4%
Cc1ccc(C(=O)OCC(=O)Nc2ccccc2C(F)(F)F)cc1S(=O)(=O)N1CCCCC1,"inconclusive: 10 µM [inhibitor, partial curve, poor fit]",–
C/C(=N/NC(=O)CNC(=O)/C=C/c1ccccc1)c1ccco1,"inconclusive: 12.6 µM [inhibitor, single point]",–
COc1cc(OC)cc(C(=O)NC(=S)NNC(=O)[C@H]2C[C@@H]2c2ccccc2)c1,–,inactive: 1.92%
O=C(O)c1ccc(N/N=C/c2cc3cc4c(cc3nc2Cl)OCCO4)cc1,active: 0.891 µM,–
CCC1CCCCN1CC(=O)Nc1cc(C)nn1-c1nc(C)cc(C)n1 (stereo unspecified),"inconclusive: 0.562 µM [inhibitor, full curve, poor fit]",–
COCC1CCN(C(=O)c2ccc3oc(CCCc4ccccc4)nc3c2)C1 (stereo unspecified),"inconclusive: 11.2 µM [inhibitor, single point]",–
CC1CC(C)C[N+](=C2C=C(N3CCCC3)CC(C)(C)C2)C1 (stereo unspecified),"inconclusive: 2.24 µM [inhibitor, partial curve, poor fit]",–
COc1ccc(OC)c(-c2nnc3n2N=C(c2ccc(OC(F)F)c(OCC4CC4)c2)CS3)c1,"inconclusive: 12.6 µM [inhibitor, partial curve, poor fit]",–
CC(=O)Nc1ccc(SC[C@H](C)CN2CC[C@H](C(C)(C)C)CCC2=O)cc1,–,inactive: -1.57%
c1ccc2c(c1)Cc1cc3ccccc3nc1-2,–,inactive: -8.53%
O=C(Nc1nc(-c2ccccn2)cs1)C1COc2ccccc2O1 (stereo unspecified),"inconclusive: 6.31 µM [inhibitor, partial curve, poor fit]",–
Cc1nnc(N2CCC(C(=O)N3CCCCCC3)CC2)c2nn(-c3ccc(Cl)cc3)c(C)c12,"inconclusive: 0.398 µM [inhibitor, full curve, poor fit]",–
O=C(Nc1ccc(Nc2ccccc2)cc1)c1ccc(Cl)cc1[N+](=O)[O-],–,inactive: 0.0728%

SMILES,Potency,"activity change, negative = inhibition"
O=C(Cn1ncc2c(=O)oc3ccccc3c21)NCCc1ccsc1,–,inactive: 1.84%
CN(Cc1ccc(C#CCCO)cc1)CC1CCCN(CCc2ccc(Cl)cc2)C1 (stereo unspecified),"inconclusive: 12.6 µM [inhibitor, single point]",–
Cc1cc(C)nc(SC2CC(=O)N(c3ccc(C)c(C)c3)C2=O)n1 (stereo unspecified),"inconclusive: 11.2 µM [inhibitor, partial curve, poor fit]",–
O=C1N[C@@H](Cc2c[nH]c3ccccc23)COC(=O)[C@@H](Cc2ccc(F)cc2)C/C=C\C[C@H]1CC(=O)N(CCO)Cc1ccccc1,"inconclusive: 11.2 µM [inhibitor, single point]",–
CCc1nnc(NC(=O)c2ccc(S(=O)(=O)N3CCCC(C)C3)cc2)o1 (stereo unspecified),"inconclusive: 7.94 µM [inhibitor, single point]",–
O=C(Nc1nnc(-c2ccccc2)o1)c1cccc(S(=O)(=O)N2CCOCC2)c1,"inconclusive: 5.01 µM [inhibitor, partial curve, poor fit]",–
CN(C(=O)c1ccc(NC(=O)Cc2cccc(NC(=O)C3CCCN(C(=O)C4CCC4)C3)c2)cc1)C1CC1 (stereo unspecified),"inconclusive: 7.94 µM [inhibitor, partial curve]",–
Cc1c(OCc2ccc(C(=O)O)o2)ccc2c3c(c(=O)oc12)CCC3,–,inactive: 5.19%
COCCN=c1scc(-c2cccs2)n1/N=C(\C)c1ccco1,"inconclusive: 2.24 µM [inhibitor, full curve]",–
CSc1ccccc1NC(=O)c1noc(C)c1[N+](=O)[O-],"inconclusive: 8.91 µM [inhibitor, partial curve, poor fit]",–
CCCn1c(N)c(N(CCOC)C(=O)c2ccc(Cl)c([N+](=O)[O-])c2)c(=O)[nH]c1=O,–,inactive: -5.11%
COc1cc(C2Nc3ccccc3NC3=C2C(=O)CC(C)(C)C3)cc(OC)c1OC(C)=O (stereo unspecified),–,inactive: -1.3%
COc1cc(-c2noc(C)c2C(=O)NCCO)cc(OC)c1OC,"inconclusive: 0.0089 µM [inhibitor, full curve, poor fit]",–
COc1ccc2cc(C[C@@H]3CC[C@@H](CO)O3)ccc2c1,"inconclusive: 11.2 µM [inhibitor, partial curve, poor fit]",–
COc1cc(C(=O)Nc2sc3c(c2C#N)CCN(C(C)=O)C3)cc(OC)c1OC,"inconclusive: 22.4 µM [inhibitor, single point]",–
C[C@]12c3[nH]c4ccc(Cl)cc4c3CCN1C(=O)[C@@H](CC(=O)NCc1cccc(C(F)(F)F)c1)C[C@@H]2C(=O)N1CCCCC1,"inconclusive: 10 µM [inhibitor, single point]",–
COc1c2c(cc3ccc(=O)oc13)CCO2,–,inactive: 22.8%
COc1ccc(NC2=CC(=O)CC(c3ccccc3)C2)c(OC)c1 (stereo unspecified),"inconclusive: 1 µM [inhibitor, full curve]",–
Cc1ccc(C(=O)Nc2ccc(Cl)cn2)cc1,"inconclusive: 1.58 µM [inhibitor, full curve]",–
O=C(Nc1ccc2c(c1)N(S(=O)(=O)c1cccs1)CCC2)c1c(F)cccc1F,"inconclusive: 2.24 µM [inhibitor, partial curve, poor fit]",–
CC(C)N(C(=O)[C@H]1C[C@H](CC(=O)NCC23CC4CC(CC(C4)C2)C3)C(=O)N2CCc3c([nH]c4ccc(Cl)cc34)[C@]12C)C(C)C,"inconclusive: 11.2 µM [inhibitor, single point]",–
CSCCC(NC(=O)c1ccccc1)C(=O)N1CCN(C(=O)c2ccccc2)CC1 (stereo unspecified),–,inactive: 8.44%
